Drawing on publication PMC11928714, this text covers binding for four molecules.

Results are given in words; binding and its absence hold for the method and conditions named. For some of these results: Binding seen in cells or lysates may run through a third protein. Some binding calls cover weakened binding; strength is not graded here. Sequences can lack the tags named with a protein.

Test [1] deals with T1, OsZHD2 (yeast two-hybrid fusion) (rice (Oryza sativa L., ZH11)) (UniProt Q6ZB90).
T1 sequence: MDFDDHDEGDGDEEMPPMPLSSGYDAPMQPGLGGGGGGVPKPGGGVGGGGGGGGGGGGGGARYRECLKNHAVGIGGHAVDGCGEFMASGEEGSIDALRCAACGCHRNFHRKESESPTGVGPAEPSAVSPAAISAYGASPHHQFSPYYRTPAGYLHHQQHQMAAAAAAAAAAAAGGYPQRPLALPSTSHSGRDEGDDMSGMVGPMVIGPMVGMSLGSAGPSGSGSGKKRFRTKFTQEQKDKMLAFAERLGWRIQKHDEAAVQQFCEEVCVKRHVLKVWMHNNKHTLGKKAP
In words: two-hybrid; full-length OsZHD1 and OsZHD2 in pGBKT7 (BD) and pGADT7 (AD), co-transformed into yeast AH109; selection on SD/-Trp-Leu-His-Ade + X-alpha-gal.

Test [2] concerns the target T2, OsZHD1 (yeast two-hybrid fusion) (rice (Oryza sativa L., ZH11)) (UniProt Q6YXH5).
T2 sequence: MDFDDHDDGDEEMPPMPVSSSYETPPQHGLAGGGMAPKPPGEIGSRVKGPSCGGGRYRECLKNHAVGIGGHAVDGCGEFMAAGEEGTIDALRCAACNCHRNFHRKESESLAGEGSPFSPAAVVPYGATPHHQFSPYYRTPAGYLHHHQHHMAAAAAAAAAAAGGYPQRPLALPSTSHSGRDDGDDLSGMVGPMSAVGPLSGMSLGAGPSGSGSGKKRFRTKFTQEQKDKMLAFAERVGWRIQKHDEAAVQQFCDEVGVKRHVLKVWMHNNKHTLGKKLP
Described as above.

Test [3] addresses T3, OsZHD1-GFP fusion protein (rice (Oryza sativa L., ZH11)) (UniProt Q6YXH5).
T3 sequence: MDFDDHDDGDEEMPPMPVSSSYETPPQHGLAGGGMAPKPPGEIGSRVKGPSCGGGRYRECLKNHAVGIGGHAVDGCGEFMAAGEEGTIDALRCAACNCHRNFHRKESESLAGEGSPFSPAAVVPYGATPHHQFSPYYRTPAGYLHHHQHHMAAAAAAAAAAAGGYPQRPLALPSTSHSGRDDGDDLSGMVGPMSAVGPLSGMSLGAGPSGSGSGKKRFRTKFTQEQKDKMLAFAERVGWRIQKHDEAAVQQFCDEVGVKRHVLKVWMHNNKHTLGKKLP
Put plainly: co-IP; OsZHD1-GFP or GFP co-expressed with OsZHD2-Myc in N. benthamiana leaves; enriched on GFP agarose beads at 4 °C, 2 h, washed three times with PBS; immunoblot with GFP and Myc antibodies. Background: Immunoblotting shows a protein as a band on a membrane.

Test [4] addresses T4, OsZHD1-cYFP (rice (Oryza sativa L., ZH11)) (UniProt Q6YXH5).
T4 sequence: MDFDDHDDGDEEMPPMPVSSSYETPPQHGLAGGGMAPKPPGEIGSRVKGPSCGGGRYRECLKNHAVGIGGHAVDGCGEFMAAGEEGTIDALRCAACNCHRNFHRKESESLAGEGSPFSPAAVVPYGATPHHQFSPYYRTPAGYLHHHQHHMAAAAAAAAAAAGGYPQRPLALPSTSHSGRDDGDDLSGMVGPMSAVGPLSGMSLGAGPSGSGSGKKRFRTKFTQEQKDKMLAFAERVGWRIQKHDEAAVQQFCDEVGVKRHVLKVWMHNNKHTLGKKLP
In words: split reporter; BiFC with split YFP; OsZHD1-cYFP and OsZHD2-nYFP co-infiltrated into N. benthamiana leaves; confocal microscopy after 36 to 48 h.

B1: OsZHD1 (yeast two-hybrid fusion) (protein, UniProt Q6YXH5 1-279)
chain: MDFDDHDDGDEEMPPMPVSSSYETPPQHGLAGGGMAPKPPGEIGSRVKGPSCGGGRYRECLKNHAVGIGGHAVDGCGEFMAAGEEGTIDALRCAACNCHRNFHRKESESLAGEGSPFSPAAVVPYGATPHHQFSPYYRTPAGYLHHHQHHMAAAAAAAAAAAGGYPQRPLALPSTSHSGRDDGDDLSGMVGPMSAVGPLSGMSLGAGPSGSGSGKKRFRTKFTQEQKDKMLAFAERVGWRIQKHDEAAVQQFCDEVGVKRHVLKVWMHNNKHTLGKKLP
For the molecule B1, the binding result in test [1] is on record as “binds”.

B2: OsZHD2 (yeast two-hybrid fusion) (protein, UniProt Q6ZB90 1-290)
chain: MDFDDHDEGDGDEEMPPMPLSSGYDAPMQPGLGGGGGGVPKPGGGVGGGGGGGGGGGGGGARYRECLKNHAVGIGGHAVDGCGEFMASGEEGSIDALRCAACGCHRNFHRKESESPTGVGPAEPSAVSPAAISAYGASPHHQFSPYYRTPAGYLHHQQHQMAAAAAAAAAAAAGGYPQRPLALPSTSHSGRDEGDDMSGMVGPMVIGPMVGMSLGSAGPSGSGSGKKRFRTKFTQEQKDKMLAFAERLGWRIQKHDEAAVQQFCEEVCVKRHVLKVWMHNNKHTLGKKAP
For the molecule B2, the binding result in test [2] is “binds”.

B3: OsZHD2-Myc fusion protein (protein, UniProt Q6ZB90 1-290)
chain: MDFDDHDEGDGDEEMPPMPLSSGYDAPMQPGLGGGGGGVPKPGGGVGGGGGGGGGGGGGGARYRECLKNHAVGIGGHAVDGCGEFMASGEEGSIDALRCAACGCHRNFHRKESESPTGVGPAEPSAVSPAAISAYGASPHHQFSPYYRTPAGYLHHQQHQMAAAAAAAAAAAAGGYPQRPLALPSTSHSGRDEGDDMSGMVGPMVIGPMVGMSLGSAGPSGSGSGKKRFRTKFTQEQKDKMLAFAERLGWRIQKHDEAAVQQFCEEVCVKRHVLKVWMHNNKHTLGKKAP
As for B3, the binding entry in test [3] is on record as “binds”.

B4: OsZHD2-nYFP (protein, UniProt Q6ZB90 1-290)
chain: MDFDDHDEGDGDEEMPPMPLSSGYDAPMQPGLGGGGGGVPKPGGGVGGGGGGGGGGGGGGARYRECLKNHAVGIGGHAVDGCGEFMASGEEGSIDALRCAACGCHRNFHRKESESPTGVGPAEPSAVSPAAISAYGASPHHQFSPYYRTPAGYLHHQQHQMAAAAAAAAAAAAGGYPQRPLALPSTSHSGRDEGDDMSGMVGPMVIGPMVGMSLGSAGPSGSGSGKKRFRTKFTQEQKDKMLAFAERLGWRIQKHDEAAVQQFCEEVCVKRHVLKVWMHNNKHTLGKKAP
Turning to B4, in test [4], the binding entry was “binds”.
